# According to the supplement of paper PMC12595434, “Development of retinoid nuclear receptor pathway antagonists through targeting aldehyde dehydrogenase 1A3” (iScience, 2025):
# Amino acid sequences for entries named in this document (tags omitted). A change or cut given only in a name is not applied to a line headed by its entry.
# UniProt Q8NC44: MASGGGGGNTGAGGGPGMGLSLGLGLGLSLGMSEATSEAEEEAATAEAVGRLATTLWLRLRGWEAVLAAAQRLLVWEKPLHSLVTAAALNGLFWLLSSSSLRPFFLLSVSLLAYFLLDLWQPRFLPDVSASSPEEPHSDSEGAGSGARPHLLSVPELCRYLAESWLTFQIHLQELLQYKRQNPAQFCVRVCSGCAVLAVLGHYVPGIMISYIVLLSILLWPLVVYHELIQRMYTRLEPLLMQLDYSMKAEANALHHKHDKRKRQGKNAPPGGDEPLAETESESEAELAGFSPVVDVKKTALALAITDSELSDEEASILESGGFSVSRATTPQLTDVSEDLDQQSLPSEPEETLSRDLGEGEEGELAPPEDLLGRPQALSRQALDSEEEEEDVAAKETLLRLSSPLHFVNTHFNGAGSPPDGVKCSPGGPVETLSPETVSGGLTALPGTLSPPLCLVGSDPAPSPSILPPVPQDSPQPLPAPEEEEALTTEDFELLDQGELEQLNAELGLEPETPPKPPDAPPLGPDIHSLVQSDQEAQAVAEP
# UniProt Q8WUB8: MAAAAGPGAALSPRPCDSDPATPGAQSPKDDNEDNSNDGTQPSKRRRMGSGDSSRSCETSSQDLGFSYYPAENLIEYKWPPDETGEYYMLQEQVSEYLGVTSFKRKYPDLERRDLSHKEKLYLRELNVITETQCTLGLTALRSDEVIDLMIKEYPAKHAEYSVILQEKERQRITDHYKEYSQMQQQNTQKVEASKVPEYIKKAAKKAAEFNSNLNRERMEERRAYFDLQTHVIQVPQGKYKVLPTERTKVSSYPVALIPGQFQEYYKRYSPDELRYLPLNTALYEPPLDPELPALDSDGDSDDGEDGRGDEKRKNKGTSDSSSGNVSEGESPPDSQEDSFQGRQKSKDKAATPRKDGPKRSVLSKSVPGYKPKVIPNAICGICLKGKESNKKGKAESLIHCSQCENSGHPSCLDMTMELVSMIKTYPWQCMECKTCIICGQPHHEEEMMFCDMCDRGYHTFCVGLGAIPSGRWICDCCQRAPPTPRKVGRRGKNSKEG
# UniProt Q8WW12: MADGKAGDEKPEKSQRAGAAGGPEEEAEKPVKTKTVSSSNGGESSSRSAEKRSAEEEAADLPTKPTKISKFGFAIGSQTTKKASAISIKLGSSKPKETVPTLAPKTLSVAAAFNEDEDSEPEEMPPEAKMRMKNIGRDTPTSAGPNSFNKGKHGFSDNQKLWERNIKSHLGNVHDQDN
# UniProt Q8NCR0: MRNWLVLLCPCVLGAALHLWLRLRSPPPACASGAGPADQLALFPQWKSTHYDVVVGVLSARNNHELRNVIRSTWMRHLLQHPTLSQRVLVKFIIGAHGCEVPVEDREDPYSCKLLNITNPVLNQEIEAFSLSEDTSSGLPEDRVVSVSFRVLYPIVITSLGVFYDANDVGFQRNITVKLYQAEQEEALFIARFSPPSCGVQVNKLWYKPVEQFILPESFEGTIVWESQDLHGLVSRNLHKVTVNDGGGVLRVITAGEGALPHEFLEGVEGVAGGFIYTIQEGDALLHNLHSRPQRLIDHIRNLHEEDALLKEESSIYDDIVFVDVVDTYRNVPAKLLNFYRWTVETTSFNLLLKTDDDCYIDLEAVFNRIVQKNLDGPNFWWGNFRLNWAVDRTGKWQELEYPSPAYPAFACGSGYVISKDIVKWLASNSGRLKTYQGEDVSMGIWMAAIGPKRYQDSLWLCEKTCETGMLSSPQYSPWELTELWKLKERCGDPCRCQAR
# UniProt Q8TD43: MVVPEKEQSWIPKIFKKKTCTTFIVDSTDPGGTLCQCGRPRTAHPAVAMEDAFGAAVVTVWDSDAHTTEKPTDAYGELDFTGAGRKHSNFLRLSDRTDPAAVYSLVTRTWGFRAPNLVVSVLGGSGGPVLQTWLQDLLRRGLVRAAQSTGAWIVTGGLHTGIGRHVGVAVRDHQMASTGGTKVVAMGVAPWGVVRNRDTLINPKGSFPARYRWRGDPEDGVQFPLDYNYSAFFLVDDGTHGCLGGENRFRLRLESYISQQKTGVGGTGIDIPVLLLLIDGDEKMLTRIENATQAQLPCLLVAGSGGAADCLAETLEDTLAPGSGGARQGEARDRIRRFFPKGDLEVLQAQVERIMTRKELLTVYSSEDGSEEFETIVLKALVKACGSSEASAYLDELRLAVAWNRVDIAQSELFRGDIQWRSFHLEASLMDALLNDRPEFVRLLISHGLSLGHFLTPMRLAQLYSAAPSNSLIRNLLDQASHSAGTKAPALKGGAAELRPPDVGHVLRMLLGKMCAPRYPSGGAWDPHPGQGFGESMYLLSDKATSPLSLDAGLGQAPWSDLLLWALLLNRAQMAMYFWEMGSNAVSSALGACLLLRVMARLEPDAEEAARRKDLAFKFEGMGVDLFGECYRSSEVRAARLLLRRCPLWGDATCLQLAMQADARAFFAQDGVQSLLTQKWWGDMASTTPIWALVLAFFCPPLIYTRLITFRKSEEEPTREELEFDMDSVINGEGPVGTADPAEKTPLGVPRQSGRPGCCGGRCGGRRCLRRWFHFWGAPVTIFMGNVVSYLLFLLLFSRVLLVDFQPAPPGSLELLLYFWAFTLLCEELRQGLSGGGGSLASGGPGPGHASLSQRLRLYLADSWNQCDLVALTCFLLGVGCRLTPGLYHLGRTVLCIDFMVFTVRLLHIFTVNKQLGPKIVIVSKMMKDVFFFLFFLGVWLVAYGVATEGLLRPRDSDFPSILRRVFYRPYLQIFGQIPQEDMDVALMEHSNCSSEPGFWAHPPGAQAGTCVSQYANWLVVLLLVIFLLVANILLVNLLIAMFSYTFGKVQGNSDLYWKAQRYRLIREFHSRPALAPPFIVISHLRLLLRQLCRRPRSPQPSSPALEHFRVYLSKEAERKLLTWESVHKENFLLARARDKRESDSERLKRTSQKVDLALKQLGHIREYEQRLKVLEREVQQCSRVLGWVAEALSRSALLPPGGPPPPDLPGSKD
# UniProt Q8TB03: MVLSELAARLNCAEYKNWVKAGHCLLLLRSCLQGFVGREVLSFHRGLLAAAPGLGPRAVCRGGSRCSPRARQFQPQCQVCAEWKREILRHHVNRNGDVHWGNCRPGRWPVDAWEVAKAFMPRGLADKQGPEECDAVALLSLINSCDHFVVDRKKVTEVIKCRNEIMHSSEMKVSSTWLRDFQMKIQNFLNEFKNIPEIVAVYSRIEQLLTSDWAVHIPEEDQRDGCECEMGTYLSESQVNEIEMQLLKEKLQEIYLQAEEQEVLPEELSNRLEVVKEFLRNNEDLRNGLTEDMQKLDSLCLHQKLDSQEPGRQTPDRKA
# UniProt Q8NB91: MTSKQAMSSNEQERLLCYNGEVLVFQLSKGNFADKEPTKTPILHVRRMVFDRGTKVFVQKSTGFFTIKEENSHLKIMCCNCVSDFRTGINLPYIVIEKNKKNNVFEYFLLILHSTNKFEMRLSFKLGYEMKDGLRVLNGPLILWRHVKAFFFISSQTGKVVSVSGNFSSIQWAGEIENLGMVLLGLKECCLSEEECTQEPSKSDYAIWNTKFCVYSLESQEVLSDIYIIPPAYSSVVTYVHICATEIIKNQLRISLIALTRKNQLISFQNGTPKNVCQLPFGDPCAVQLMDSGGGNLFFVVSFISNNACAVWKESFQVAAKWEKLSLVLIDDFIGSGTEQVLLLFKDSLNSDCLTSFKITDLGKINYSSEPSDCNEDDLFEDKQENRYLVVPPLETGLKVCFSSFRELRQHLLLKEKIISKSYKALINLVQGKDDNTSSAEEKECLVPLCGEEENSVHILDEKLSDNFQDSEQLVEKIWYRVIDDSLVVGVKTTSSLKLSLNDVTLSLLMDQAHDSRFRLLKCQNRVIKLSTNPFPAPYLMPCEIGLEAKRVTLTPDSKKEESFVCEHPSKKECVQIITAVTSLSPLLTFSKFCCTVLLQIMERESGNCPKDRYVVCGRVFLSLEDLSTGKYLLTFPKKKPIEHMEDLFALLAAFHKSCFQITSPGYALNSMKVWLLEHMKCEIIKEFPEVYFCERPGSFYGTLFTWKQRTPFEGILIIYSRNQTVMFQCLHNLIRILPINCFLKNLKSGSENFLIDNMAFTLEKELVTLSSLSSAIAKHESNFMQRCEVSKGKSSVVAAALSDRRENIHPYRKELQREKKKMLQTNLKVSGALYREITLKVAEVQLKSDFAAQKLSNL
# UniProt Q8WUX9: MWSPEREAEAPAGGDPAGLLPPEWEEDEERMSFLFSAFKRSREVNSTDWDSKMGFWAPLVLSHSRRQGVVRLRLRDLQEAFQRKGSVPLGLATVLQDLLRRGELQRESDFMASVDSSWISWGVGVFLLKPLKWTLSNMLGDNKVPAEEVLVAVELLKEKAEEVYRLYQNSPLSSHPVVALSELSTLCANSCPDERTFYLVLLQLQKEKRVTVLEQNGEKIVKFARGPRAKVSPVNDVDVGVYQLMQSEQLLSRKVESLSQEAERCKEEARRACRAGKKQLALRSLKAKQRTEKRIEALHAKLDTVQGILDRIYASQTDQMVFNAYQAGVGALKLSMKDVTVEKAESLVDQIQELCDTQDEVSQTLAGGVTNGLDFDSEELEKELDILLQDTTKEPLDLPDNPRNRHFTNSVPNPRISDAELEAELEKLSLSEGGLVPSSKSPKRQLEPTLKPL
# UniProt Q8NCG7: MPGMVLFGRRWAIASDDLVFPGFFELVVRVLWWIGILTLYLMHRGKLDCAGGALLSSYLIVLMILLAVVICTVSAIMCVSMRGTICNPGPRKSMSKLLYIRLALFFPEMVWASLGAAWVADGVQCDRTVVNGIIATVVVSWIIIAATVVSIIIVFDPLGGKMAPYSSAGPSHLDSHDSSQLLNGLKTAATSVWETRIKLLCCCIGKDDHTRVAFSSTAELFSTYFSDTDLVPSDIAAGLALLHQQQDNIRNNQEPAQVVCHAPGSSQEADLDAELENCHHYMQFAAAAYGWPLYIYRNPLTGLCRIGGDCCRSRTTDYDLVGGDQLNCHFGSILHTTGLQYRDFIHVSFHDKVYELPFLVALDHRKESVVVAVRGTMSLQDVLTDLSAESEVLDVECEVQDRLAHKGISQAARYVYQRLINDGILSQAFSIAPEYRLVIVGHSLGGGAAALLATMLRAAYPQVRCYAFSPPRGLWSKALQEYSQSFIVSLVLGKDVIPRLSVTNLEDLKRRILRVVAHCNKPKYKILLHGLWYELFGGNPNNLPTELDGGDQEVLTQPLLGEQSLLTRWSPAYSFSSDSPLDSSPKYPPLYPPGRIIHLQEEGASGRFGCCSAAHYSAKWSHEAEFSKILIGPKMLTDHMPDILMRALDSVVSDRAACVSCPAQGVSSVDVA
# UniProt Q8TDH9: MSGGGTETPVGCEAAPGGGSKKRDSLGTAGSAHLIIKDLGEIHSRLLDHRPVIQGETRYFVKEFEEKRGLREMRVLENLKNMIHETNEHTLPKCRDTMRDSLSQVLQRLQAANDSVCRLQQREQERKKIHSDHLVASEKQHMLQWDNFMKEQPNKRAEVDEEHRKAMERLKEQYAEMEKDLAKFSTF
# UniProt Q8WUN7: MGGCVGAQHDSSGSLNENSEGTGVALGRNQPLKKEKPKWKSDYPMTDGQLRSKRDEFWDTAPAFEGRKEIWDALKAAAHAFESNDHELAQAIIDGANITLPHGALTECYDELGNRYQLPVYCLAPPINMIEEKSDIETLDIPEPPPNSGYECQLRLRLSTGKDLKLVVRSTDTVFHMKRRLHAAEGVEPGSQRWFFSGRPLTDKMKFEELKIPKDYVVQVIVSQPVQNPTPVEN
# UniProt Q8TAP8: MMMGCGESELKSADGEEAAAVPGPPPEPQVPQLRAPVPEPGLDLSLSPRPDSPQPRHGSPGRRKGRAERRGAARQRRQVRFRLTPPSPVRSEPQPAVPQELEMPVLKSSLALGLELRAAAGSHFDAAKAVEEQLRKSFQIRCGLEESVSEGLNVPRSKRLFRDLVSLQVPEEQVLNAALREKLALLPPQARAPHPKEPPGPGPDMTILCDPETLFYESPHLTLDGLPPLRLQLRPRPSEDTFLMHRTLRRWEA
# UniProt Q8NEU8: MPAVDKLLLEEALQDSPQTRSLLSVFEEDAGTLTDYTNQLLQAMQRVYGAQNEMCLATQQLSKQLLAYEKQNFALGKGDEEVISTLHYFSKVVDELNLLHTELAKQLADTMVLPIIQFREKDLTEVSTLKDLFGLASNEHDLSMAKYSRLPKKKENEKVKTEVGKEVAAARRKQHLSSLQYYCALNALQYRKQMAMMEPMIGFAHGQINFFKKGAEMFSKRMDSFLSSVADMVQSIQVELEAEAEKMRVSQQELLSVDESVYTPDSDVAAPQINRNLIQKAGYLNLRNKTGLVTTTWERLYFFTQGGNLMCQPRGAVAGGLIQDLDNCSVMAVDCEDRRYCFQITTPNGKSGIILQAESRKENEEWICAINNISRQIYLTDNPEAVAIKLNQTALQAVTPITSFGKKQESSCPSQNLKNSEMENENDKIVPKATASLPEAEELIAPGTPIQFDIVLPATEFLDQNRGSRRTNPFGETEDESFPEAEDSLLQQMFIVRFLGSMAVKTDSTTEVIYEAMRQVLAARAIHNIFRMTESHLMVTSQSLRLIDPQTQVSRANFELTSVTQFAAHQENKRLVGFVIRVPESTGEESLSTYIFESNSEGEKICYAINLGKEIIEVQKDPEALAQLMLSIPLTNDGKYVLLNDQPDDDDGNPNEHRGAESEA
# Some of the results follow. This is a noisy data set.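 Many melting curves are irregular; where none melted, Tm was taken as 64 °C.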
# Compound: CCc1cnccc1C(=O)Nc1cc2c(cc1F)NC(=O)CC2
# Assay: melting temperature shift (DMSO Tm minus MBE1-treated Tm) in cellular thermal proteome profiling; higher = less thermal stabilization by MBE1 (negative = stabilized by MBE1)
# Conditions: A375
target,measurement,setting,value
UniProt Q8TBE0,melting temperature shift,MBE1 concentration: 100 nM,1.93 °C
same,melting temperature shift,MBE1 concentration: 1 uM,2.01 °C
UBASH3B (UniProt Q8TF42),melting temperature shift,MBE1 concentration: 100 nM,-1.2 °C
same,melting temperature shift,MBE1 concentration: 1 uM,-0.715 °C
FAM134A (UniProt Q8NC44),melting temperature shift,MBE1 concentration: 100 nM,-0.885 °C
same,melting temperature shift,MBE1 concentration: 1 uM,1.13 °C
UniProt Q8WVL7,melting temperature shift,MBE1 concentration: 100 nM,-0.328 °C
same,melting temperature shift,MBE1 concentration: 1 uM,0.452 °C
UniProt Q8WUY3,melting temperature shift,MBE1 concentration: 1 uM,0.966 °C
CASC5 (UniProt Q8NG31),melting temperature shift,MBE1 concentration: 100 nM,-4.72 °C
same,melting temperature shift,MBE1 concentration: 1 uM,-0.547 °C
PRPF38A (UniProt Q8NAV1),melting temperature shift,MBE1 concentration: 100 nM,1.25 °C
same,melting temperature shift,MBE1 concentration: 1 uM,-0.0794 °C
GSTCD (UniProt Q8NEC7),melting temperature shift,MBE1 concentration: 100 nM,0.653 °C
same,melting temperature shift,MBE1 concentration: 1 uM,1.14 °C
UniProt Q8NFZ8,melting temperature shift,MBE1 concentration: 1 uM,-2.73 °C
NCOA7 (UniProt Q8NI08),melting temperature shift,MBE1 concentration: 100 nM,1.01 °C
same,melting temperature shift,MBE1 concentration: 1 uM,-0.543 °C
COG1 (UniProt Q8WTW3),melting temperature shift,MBE1 concentration: 100 nM,-1.18 °C
same,melting temperature shift,MBE1 concentration: 1 uM,-0.725 °C
NAXE (UniProt Q8NCW5),melting temperature shift,MBE1 concentration: 100 nM,-2.84 °C
same,melting temperature shift,MBE1 concentration: 1 uM,1.4 °C
UniProt Q8TEK3,melting temperature shift,MBE1 concentration: 100 nM,-0.701 °C
same,melting temperature shift,MBE1 concentration: 1 uM,-0.102 °C
DTX3L (UniProt Q8TDB6),melting temperature shift,MBE1 concentration: 100 nM,-1.54 °C
same,melting temperature shift,MBE1 concentration: 1 uM,0.0961 °C
PDPR (UniProt Q8NCN5),melting temperature shift,MBE1 concentration: 100 nM,-0.302 °C
same,melting temperature shift,MBE1 concentration: 1 uM,-0.0537 °C
PHF10 (UniProt Q8WUB8),melting temperature shift,MBE1 concentration: 100 nM,-0.41 °C
same,melting temperature shift,MBE1 concentration: 1 uM,-0.545 °C
UniProt Q8N9E0,melting temperature shift,MBE1 concentration: 1 uM,-3.62 °C
PUM2 (UniProt Q8TB72),melting temperature shift,MBE1 concentration: 100 nM,-0.476 °C
same,melting temperature shift,MBE1 concentration: 1 uM,-0.604 °C
FLAD1 (UniProt Q8NFF5),melting temperature shift,MBE1 concentration: 100 nM,0.867 °C
same,melting temperature shift,MBE1 concentration: 1 uM,0.177 °C
UniProt Q8TCT8,melting temperature shift,MBE1 concentration: 1 uM,2.39 °C
DYNC2H1 (UniProt Q8NCM8),melting temperature shift,MBE1 concentration: 100 nM,3.58 °C
same,melting temperature shift,MBE1 concentration: 1 uM,0.885 °C
PCNP (UniProt Q8WW12),melting temperature shift,MBE1 concentration: 1 uM,-2.8 °C
UniProt Q8TB24,melting temperature shift,MBE1 concentration: 100 nM,-0.216 °C
UniProt Q8WUJ1,melting temperature shift,MBE1 concentration: 1 uM,0.861 °C
UniProt Q8TDG4,melting temperature shift,MBE1 concentration: 100 nM,0.47 °C
same,melting temperature shift,MBE1 concentration: 1 uM,12.4 °C
B3GALNT2 (UniProt Q8NCR0),melting temperature shift,MBE1 concentration: 1 uM,-4.51 °C
UniProt Q8TAV0,melting temperature shift,MBE1 concentration: 100 nM,-0.541 °C
same,melting temperature shift,MBE1 concentration: 1 uM,-0.282 °C
NUBPL (UniProt Q8TB37),melting temperature shift,MBE1 concentration: 100 nM,-0.738 °C
same,melting temperature shift,MBE1 concentration: 1 uM,-0.25 °C
TTC13 (UniProt Q8NBP0),melting temperature shift,MBE1 concentration: 100 nM,-0.202 °C
same,melting temperature shift,MBE1 concentration: 1 uM,0.0488 °C
CMAS (UniProt Q8NFW8),melting temperature shift,MBE1 concentration: 100 nM,0.263 °C
same,melting temperature shift,MBE1 concentration: 1 uM,-0.0244 °C
UniProt Q8WUB2,melting temperature shift,MBE1 concentration: 100 nM,-1.64 °C
PLA2G15 (UniProt Q8NCC3),melting temperature shift,MBE1 concentration: 1 uM,-2.93 °C
UniProt Q8TD43,melting temperature shift,MBE1 concentration: 100 nM,0.248 °C
SNRNP27 (UniProt Q8WVK2),melting temperature shift,MBE1 concentration: 100 nM,-2.51 °C
same,melting temperature shift,MBE1 concentration: 1 uM,-1.72 °C
PLBD2 (UniProt Q8NHP8),melting temperature shift,MBE1 concentration: 100 nM,-1.81 °C
same,melting temperature shift,MBE1 concentration: 1 uM,-2.72 °C
PNISR (UniProt Q8TF01),melting temperature shift,MBE1 concentration: 1 uM,-3.15 °C
HELB (UniProt Q8NG08),melting temperature shift,MBE1 concentration: 100 nM,-0.349 °C
same,melting temperature shift,MBE1 concentration: 1 uM,0.414 °C
CXORF38 (UniProt Q8TB03),melting temperature shift,MBE1 concentration: 100 nM,-0.421 °C
same,melting temperature shift,MBE1 concentration: 1 uM,-0.0977 °C
PDCD6IP (UniProt Q8WUM4),melting temperature shift,MBE1 concentration: 100 nM,-0.193 °C
same,melting temperature shift,MBE1 concentration: 1 uM,-0.395 °C
TGFBRAP1 (UniProt Q8WUH2),melting temperature shift,MBE1 concentration: 100 nM,-0.0847 °C
same,melting temperature shift,MBE1 concentration: 1 uM,-0.221 °C
FANCB (UniProt Q8NB91),melting temperature shift,MBE1 concentration: 100 nM,-1.59 °C
same,melting temperature shift,MBE1 concentration: 1 uM,0.0916 °C
CHMP7 (UniProt Q8WUX9),melting temperature shift,MBE1 concentration: 100 nM,-0.56 °C
same,melting temperature shift,MBE1 concentration: 1 uM,0.155 °C
PDZD8 (UniProt Q8NEN9),melting temperature shift,MBE1 concentration: 100 nM,0.0427 °C
same,melting temperature shift,MBE1 concentration: 1 uM,-0.0855 °C
DAGLB (UniProt Q8NCG7),melting temperature shift,MBE1 concentration: 100 nM,-1.35 °C
same,melting temperature shift,MBE1 concentration: 1 uM,1.22 °C
EIF1AD (UniProt Q8N9N8),melting temperature shift,MBE1 concentration: 100 nM,0.429 °C
same,melting temperature shift,MBE1 concentration: 1 uM,0.311 °C
UniProt Q8TBP6,melting temperature shift,MBE1 concentration: 100 nM,-2.49 °C
same,melting temperature shift,MBE1 concentration: 1 uM,0.238 °C
FBXO22 (UniProt Q8NEZ5),melting temperature shift,MBE1 concentration: 100 nM,-0.441 °C
same,melting temperature shift,MBE1 concentration: 1 uM,1.21 °C
UniProt Q8WV22,melting temperature shift,MBE1 concentration: 100 nM,0.452 °C
same,melting temperature shift,MBE1 concentration: 1 uM,-0.574 °C
NUP210 (UniProt Q8TEM1),melting temperature shift,MBE1 concentration: 100 nM,-0.154 °C
same,melting temperature shift,MBE1 concentration: 1 uM,-0.208 °C
UniProt Q8WVV9,melting temperature shift,MBE1 concentration: 100 nM,-0.532 °C
same,melting temperature shift,MBE1 concentration: 1 uM,-0.211 °C
TNRC6A (UniProt Q8NDV7),melting temperature shift,MBE1 concentration: 100 nM,-1.42 °C
same,melting temperature shift,MBE1 concentration: 1 uM,-2.9 °C
UniProt Q8TCT7,melting temperature shift,MBE1 concentration: 100 nM,-1.01 °C
same,melting temperature shift,MBE1 concentration: 1 uM,1.01 °C
UniProt Q8NDX5,melting temperature shift,MBE1 concentration: 100 nM,-2.79 °C
same,melting temperature shift,MBE1 concentration: 1 uM,-2.9 °C
C12ORF29 (UniProt Q8N999),melting temperature shift,MBE1 concentration: 100 nM,-2 °C
same,melting temperature shift,MBE1 concentration: 1 uM,-0.58 °C
BLOC1S5 (UniProt Q8TDH9),melting temperature shift,MBE1 concentration: 100 nM,0.0427 °C
same,melting temperature shift,MBE1 concentration: 1 uM,0.302 °C
UniProt Q8WUN7,melting temperature shift,MBE1 concentration: 100 nM,-1.32 °C
same,melting temperature shift,MBE1 concentration: 1 uM,-0.268 °C
ABHD11 (UniProt Q8NFV4),melting temperature shift,MBE1 concentration: 100 nM,-3.34 °C
same,melting temperature shift,MBE1 concentration: 1 uM,0.758 °C
RB1CC1 (UniProt Q8TDY2),melting temperature shift,MBE1 concentration: 100 nM,0.586 °C
same,melting temperature shift,MBE1 concentration: 1 uM,-0.983 °C
UniProt Q8TAP8,melting temperature shift,MBE1 concentration: 100 nM,-2.14 °C
same,melting temperature shift,MBE1 concentration: 1 uM,1.41 °C
PI4K2B (UniProt Q8TCG2),melting temperature shift,MBE1 concentration: 100 nM,0.928 °C
same,melting temperature shift,MBE1 concentration: 1 uM,0.391 °C
THOC2 (UniProt Q8NI27),melting temperature shift,MBE1 concentration: 100 nM,-0.734 °C
same,melting temperature shift,MBE1 concentration: 1 uM,-0.335 °C
PREX1 (UniProt Q8TCU6),melting temperature shift,MBE1 concentration: 100 nM,-1.2 °C
same,melting temperature shift,MBE1 concentration: 1 uM,-0.569 °C
APPL2 (UniProt Q8NEU8),melting temperature shift,MBE1 concentration: 100 nM,-1.17 °C
same,melting temperature shift,MBE1 concentration: 1 uM,-1.01 °C

# Shown with bars between the fields: part of the list above
target | measurement | setting | value
PNISR (UniProt Q8TF01) | melting temperature shift | MBE1 concentration: 1 uM | -3.15 °C
CXORF38 (UniProt Q8TB03) | melting temperature shift | MBE1 concentration: 100 nM | -0.421 °C
UniProt Q8NDX5 | melting temperature shift | MBE1 concentration: 1 uM | -2.9 °C
BLOC1S5 (UniProt Q8TDH9) | melting temperature shift | MBE1 concentration: 1 uM | 0.302 °C
APPL2 (UniProt Q8NEU8) | melting temperature shift | MBE1 concentration: 1 uM | -1.01 °C

# 3 records drawn at random from those above:
target,measurement,setting,value
UniProt Q8TAP8,melting temperature shift,MBE1 concentration: 1 uM,1.41 °C
UniProt Q8TCT7,melting temperature shift,MBE1 concentration: 100 nM,-1.01 °C
FBXO22 (UniProt Q8NEZ5),melting temperature shift,MBE1 concentration: 1 uM,1.21 °C
